# In the supplement of paper PMC10849652:
# Amino acid sequences for entries named in this document (tags omitted). A change or cut given only in a name is not applied to a line headed by its entry.
# UniProt Q9NSC5: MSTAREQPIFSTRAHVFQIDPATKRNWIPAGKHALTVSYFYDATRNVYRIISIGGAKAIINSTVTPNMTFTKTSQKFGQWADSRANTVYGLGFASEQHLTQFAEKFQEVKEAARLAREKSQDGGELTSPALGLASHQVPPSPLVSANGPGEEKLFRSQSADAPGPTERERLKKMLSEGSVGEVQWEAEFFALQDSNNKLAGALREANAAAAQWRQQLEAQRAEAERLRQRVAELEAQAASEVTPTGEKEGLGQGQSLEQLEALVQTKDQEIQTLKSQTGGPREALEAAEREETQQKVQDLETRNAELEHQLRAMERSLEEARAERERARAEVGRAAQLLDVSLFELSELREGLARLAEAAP
# UniProt Q04756: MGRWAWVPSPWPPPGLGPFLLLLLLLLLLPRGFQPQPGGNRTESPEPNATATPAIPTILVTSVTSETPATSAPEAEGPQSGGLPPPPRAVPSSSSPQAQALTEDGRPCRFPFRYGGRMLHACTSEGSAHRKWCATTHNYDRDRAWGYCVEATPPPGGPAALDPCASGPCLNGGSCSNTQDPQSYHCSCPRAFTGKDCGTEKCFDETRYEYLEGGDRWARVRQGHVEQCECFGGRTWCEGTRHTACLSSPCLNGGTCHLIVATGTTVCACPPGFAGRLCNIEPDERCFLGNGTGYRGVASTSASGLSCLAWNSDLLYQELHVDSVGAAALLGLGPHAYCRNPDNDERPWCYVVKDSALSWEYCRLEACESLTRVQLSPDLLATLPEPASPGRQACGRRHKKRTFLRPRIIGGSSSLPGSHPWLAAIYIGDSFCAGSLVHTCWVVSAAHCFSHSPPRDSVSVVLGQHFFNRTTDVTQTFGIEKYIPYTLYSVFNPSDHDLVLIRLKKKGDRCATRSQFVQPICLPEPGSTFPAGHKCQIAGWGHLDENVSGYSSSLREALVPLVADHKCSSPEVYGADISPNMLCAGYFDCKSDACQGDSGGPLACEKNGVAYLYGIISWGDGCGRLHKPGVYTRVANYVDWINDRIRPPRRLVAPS
# UniProt Q00839, whole entry, looked up: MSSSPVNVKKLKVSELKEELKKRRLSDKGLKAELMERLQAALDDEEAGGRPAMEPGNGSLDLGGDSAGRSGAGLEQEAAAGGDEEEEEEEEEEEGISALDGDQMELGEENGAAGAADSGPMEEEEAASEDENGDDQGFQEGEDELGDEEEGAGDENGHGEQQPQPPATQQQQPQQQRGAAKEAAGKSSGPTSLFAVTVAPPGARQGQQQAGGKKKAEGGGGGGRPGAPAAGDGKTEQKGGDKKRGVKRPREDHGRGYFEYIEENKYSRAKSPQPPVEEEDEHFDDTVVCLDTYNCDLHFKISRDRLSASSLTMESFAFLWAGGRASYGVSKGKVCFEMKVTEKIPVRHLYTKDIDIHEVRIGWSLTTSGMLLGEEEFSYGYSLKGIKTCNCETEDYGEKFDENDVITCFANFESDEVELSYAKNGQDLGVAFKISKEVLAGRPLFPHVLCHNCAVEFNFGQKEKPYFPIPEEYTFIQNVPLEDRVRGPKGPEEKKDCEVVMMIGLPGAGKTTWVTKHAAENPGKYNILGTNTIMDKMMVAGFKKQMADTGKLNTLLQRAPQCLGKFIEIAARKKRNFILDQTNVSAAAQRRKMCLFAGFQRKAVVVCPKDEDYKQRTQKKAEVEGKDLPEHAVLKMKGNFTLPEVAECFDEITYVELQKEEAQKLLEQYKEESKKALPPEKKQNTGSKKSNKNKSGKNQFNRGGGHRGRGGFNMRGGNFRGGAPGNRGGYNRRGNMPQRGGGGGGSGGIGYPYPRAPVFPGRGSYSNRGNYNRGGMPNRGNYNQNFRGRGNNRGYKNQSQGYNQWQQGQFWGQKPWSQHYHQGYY
# UniProt Q96MH2: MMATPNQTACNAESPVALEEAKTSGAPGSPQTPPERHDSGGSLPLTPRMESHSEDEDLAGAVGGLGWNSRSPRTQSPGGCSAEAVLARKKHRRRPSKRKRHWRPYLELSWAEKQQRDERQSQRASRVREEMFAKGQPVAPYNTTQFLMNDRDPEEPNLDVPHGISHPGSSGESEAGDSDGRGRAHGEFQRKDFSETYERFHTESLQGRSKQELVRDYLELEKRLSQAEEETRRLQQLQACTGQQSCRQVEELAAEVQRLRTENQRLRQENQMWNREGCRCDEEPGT
# UniProt A6NHT5: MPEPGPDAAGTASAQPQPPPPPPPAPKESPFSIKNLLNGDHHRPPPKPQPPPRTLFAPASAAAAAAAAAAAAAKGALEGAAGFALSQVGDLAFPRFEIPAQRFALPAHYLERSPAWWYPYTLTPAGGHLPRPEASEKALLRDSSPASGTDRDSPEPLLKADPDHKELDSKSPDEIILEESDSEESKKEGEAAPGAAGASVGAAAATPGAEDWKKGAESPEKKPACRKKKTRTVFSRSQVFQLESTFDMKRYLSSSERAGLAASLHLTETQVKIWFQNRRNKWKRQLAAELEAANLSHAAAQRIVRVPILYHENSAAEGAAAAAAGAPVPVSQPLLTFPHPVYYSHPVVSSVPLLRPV
# UniProt Q15011: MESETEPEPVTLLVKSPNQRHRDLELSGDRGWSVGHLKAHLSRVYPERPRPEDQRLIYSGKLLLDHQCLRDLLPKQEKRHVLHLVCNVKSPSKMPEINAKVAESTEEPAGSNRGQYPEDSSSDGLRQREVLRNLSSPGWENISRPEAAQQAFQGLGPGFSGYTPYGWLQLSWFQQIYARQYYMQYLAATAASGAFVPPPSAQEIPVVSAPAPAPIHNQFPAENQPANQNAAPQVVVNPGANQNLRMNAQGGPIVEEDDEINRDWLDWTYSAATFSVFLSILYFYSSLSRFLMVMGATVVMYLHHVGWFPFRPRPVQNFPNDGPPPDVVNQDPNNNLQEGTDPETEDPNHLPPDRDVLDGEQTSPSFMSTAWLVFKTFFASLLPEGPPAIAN
# UniProt Q03933: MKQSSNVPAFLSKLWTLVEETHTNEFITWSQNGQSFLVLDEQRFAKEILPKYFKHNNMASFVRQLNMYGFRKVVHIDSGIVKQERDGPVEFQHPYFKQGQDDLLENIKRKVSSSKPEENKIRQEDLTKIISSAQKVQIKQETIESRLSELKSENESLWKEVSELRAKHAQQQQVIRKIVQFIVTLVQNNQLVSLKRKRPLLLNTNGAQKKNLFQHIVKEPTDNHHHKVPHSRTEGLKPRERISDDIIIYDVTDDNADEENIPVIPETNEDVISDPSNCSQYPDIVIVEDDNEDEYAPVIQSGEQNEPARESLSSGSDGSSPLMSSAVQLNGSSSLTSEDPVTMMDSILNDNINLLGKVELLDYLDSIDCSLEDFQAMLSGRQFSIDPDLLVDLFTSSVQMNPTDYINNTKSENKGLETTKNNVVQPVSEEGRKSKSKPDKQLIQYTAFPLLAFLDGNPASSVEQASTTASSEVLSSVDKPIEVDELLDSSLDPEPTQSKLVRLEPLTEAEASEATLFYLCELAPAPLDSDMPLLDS
# UniProt Q9UJC3, whole entry, looked up: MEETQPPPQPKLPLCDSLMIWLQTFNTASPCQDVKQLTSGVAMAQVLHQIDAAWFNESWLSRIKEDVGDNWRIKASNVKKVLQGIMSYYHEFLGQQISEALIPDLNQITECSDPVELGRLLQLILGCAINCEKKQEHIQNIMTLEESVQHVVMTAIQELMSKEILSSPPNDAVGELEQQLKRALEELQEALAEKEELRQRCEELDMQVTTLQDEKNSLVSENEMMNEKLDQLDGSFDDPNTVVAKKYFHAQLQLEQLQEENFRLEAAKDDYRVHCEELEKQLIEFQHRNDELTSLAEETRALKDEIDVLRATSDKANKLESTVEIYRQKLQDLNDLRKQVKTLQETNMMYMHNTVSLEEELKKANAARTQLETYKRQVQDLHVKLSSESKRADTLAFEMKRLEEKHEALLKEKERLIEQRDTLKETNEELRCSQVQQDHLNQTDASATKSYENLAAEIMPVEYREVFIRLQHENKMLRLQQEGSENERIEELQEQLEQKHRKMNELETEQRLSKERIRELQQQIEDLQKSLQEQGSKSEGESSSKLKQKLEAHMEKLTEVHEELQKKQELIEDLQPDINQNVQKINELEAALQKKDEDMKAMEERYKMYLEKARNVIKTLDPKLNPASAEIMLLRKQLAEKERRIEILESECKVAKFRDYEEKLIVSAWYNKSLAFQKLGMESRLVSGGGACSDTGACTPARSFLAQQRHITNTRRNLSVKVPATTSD
# UniProt P13747, whole entry, looked up: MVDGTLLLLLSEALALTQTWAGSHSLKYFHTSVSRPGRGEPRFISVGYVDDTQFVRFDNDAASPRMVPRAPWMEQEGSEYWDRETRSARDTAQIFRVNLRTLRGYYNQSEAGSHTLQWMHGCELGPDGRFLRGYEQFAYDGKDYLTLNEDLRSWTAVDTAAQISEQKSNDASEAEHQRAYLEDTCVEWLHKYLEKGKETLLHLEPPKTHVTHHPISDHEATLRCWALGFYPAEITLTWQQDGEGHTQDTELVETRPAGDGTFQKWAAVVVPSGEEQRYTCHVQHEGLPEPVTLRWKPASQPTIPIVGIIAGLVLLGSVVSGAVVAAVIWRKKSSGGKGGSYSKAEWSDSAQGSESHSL
# UniProt P15428: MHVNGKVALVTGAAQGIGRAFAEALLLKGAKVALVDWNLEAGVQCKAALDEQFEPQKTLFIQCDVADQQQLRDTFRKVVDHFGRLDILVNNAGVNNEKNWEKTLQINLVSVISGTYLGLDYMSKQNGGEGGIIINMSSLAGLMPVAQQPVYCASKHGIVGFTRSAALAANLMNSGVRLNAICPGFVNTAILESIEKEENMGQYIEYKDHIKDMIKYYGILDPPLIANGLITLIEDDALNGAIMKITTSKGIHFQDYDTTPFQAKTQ
# UniProt O75506: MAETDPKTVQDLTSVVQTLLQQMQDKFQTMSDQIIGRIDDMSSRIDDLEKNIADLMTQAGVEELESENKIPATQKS
# UniProt Q96JB3: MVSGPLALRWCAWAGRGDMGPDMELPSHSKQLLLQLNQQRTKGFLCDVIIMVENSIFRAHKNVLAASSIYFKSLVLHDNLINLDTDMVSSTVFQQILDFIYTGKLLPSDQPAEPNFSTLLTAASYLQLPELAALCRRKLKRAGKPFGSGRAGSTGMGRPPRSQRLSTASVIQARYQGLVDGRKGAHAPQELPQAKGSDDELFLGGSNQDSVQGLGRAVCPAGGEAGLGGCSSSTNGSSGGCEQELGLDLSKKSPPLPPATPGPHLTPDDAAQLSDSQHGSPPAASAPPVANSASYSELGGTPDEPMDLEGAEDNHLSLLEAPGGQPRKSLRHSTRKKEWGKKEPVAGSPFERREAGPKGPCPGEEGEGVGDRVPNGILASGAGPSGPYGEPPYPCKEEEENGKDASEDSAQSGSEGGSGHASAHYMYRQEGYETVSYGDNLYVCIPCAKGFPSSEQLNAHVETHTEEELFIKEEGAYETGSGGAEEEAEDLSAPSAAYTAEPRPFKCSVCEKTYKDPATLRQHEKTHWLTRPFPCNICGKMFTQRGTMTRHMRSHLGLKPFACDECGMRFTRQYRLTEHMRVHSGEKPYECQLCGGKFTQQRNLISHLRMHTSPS
# UniProt Q9BQA5: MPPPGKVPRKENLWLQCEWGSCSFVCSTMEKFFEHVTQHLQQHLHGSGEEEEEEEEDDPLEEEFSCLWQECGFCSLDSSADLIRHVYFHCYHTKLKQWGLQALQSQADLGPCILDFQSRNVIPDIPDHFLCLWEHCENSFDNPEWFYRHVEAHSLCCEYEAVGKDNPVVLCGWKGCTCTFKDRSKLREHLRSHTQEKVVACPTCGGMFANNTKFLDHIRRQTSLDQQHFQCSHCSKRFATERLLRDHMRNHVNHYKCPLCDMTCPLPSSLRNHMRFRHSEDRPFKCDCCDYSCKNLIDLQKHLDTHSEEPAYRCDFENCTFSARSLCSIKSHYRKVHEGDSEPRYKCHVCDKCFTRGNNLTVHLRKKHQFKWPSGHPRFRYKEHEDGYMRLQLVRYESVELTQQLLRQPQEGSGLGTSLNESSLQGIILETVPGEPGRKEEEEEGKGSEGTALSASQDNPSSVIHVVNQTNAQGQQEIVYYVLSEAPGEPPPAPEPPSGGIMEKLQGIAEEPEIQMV
# UniProt Q9H2F3: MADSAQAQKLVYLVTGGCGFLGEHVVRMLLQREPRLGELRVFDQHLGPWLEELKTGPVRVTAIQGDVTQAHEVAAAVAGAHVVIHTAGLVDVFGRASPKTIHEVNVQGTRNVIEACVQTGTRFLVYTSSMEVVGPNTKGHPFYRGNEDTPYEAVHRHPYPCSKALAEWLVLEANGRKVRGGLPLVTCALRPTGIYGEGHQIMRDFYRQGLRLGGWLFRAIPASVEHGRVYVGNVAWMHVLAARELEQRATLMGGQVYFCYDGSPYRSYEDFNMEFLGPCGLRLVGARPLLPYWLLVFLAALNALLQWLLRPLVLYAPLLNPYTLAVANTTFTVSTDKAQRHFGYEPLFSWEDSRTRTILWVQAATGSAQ
# The other results are listed elsewhere or left out.
# Tests used:
# Experiment in all cases: log2 fold change, soluble protein after heating vs DMSO (PISA); higher = thermal stabilisation; K562 lysate, 10 uM; active = over 0.2 and 3.5 SD of the protein, either way, in both replicates (recomputed)
# [1] = compound: CS(=O)(=O)CCNCc1ccc(-c2ccc3ncnc(Nc4ccc(OCc5cccc(F)c5)c(Cl)c4)c3c2)o1 [lapatinib]
# How it was run: (§1)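 Log-two fold change in thermal stability relative to solvent controls is reported from duplicates. For each sample, crude K562 extract from dounce-homogenised pellets in PBS pH 7.4 with 1 mM MgCl2, at 1 mg/mL protein, was treated with 10 μM compound for 30 min. Aliquots heated for 3 min across 48°C-58°C were pooled, brought to 0.5% NP-40 at 4°C and cleared at 21,000xg for 90 min. The supernatant was quantified by TMTpro 16plex LC-MS/MS with channel sums equalised.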
# [2] = compound: CS(=O)(=O)N1CCN(Cc2cc3nc(-c4cccc5[nH]ncc45)nc(N4CCOCC4)c3s2)CC1 [pictilisib]
# How it was run: as §1
# [3] = compound: C[C@@H](Oc1cc(-c2cnn(C3CCNCC3)c2)cnc1N)c1c(Cl)ccc(F)c1Cl [crizotinib]
# How it was run: as §1
# [4] = compound: C[C@H](C1=CC=C(C=C1)C(=O)NC2=C3C=CNC3=NC=C2)N
# How it was run: as §1
# [5] = compound: Cc1cc(Nc2cc(CN3CCOCC3)c3nc(C)c(Cc4ccc(Cl)cc4F)n3n2)n[nH]1 [gandotinib]
# How it was run: as §1
# [6] = compound: Cc1ccc(-n2nc(C(C)(C)C)cc2NC(=O)Nc2ccc(OCCN3CCOCC3)c3ccccc23)cc1 [doramapimod]
# How it was run: as §1
# [7] = compound: Cc1ccc(NC(=O)c2ccc(CN3CC[C@H](N(C)C)C3)c(C(F)(F)F)c2)cc1Nc1nccc(-c2cncnc2)n1 [bafetinib]
# How it was run: as §1
# [8] = compound: Cc1cccc(CC(=O)N2CCc3c2ccc(-c2cn(C)c4ncnc(N)c24)c3F)n1
# How it was run: as §1
# [9] = compound: Cn1cc(CNCC2CCN(c3ncc(C(=O)NO)cn3)CC2)c2ccccc21 [quisinostat]
# How it was run: as §1
# [10] = compound: NC(=O)Nc1cc(-c2cccc(F)c2)sc1C(=O)N[C@H]1CCCNC1
# How it was run: as §1
# [11] = compound: NC(=O)c1cnc(N[C@@H]2CCCC[C@@H]2N)nc1Nc1cccc(-n2nccn2)c1
# How it was run: as §1
# [12] = compound: Cc1cn(-c2cc(NC(=O)c3ccc(C)c(Nc4nccc(-c5cccnc5)n4)c3)cc(C(F)(F)F)c2)cn1 [nilotinib]
# How it was run: as §1
# [13] = compound: Cc1nc(Nc2n[nH]c3c2CN(C(=O)N[C@H](CN(C)C)c2ccccc2)C3(C)C)c2sccc2n1
# How it was run: as §1
# [14] = compound: Cc1ncc(-c2ccnc(Nc3ccc(S(C)(=O)=O)cc3)n2)n1C(C)C
# How it was run: as §1
# [15] = compound: Cn1cncc1[C@@](N)(c1ccc(Cl)cc1)c1ccc2c(c1)c(-c1cccc(Cl)c1)cc(=O)n2C [tipifarnib]
# How it was run: as §1
# [16] = compound: NC1(c2ccc(-c3nc4ccn5c(=O)[nH]nc5c4cc3-c3ccccc3)cc2)CCC1
# How it was run: as §1
# [17] = compound: Cc1cc(Nc2cc(N3CCN(C)CC3)nc(Sc3ccc(NC(=O)C4CC4)cc3)n2)n[nH]1 [tozasertib]
# How it was run: as §1
# [18] = compound: C[C@H](Nc1ncnc2nc[nH]c12)c1cc2cccc(Cl)c2c(=O)n1-c1ccccc1 [duvelisib]
# How it was run: as §1
# [19] = compound: Cc1nc(Nc2ncc(C(=O)Nc3c(C)cccc3Cl)s2)cc(N2CCN(CCO)CC2)n1 [dasatinib]
# How it was run: as §1
# [20] = compound: Cn1cc(-c2ccc3c(c2)CCN3C(=O)Cc2cccc(C(F)(F)F)c2)c2c(N)ncnc21
# How it was run: as §1
target,measurement,setting,value
HOMER3 (UniProt Q9NSC5),log2 fold change,[1],inactive: 0.091
same,log2 fold change,[2],active: 0.42
same,log2 fold change,[3],inactive: 0.021
same,log2 fold change,[4],inactive: 0.048
same,log2 fold change,[5],inactive: 0.061
same,log2 fold change,[6],inactive: 0.016
same,log2 fold change,[7],inactive: 0.234
same,log2 fold change,[8],inactive: -0.072
same,log2 fold change,[9],inactive: -0.147
same,log2 fold change,[10],inactive: 0.019
same,log2 fold change,[11],inactive: -0.023
HNRNPD (UniProt D6RF44),log2 fold change,[3],inactive: -0.086
same,log2 fold change,[6],inactive: 0
same,log2 fold change,[12],inactive: -0.03
same,log2 fold change,[13],inactive: 0.11
same,log2 fold change,[14],inactive: 0.103
same,log2 fold change,[9],inactive: -0.061
same,log2 fold change,[15],inactive: 0.12
same,log2 fold change,[10],inactive: -0.353
HNRNPUL1 (UniProt M0R247),log2 fold change,[2],inactive: 0.038
same,log2 fold change,[4],inactive: 0.014
same,log2 fold change,[5],inactive: -0.014
same,log2 fold change,[7],inactive: 0.008
same,log2 fold change,[8],inactive: 0.034
same,log2 fold change,[16],inactive: -0.063
HSP90AA2P (UniProt Q14568),log2 fold change,[3],inactive: 0.002
same,log2 fold change,[17],inactive: -0.043
same,log2 fold change,[6],inactive: -0.049
same,log2 fold change,[9],inactive: 0.016
same,log2 fold change,[10],inactive: -0.026
HGFAC (UniProt Q04756),log2 fold change,[4],inactive: -0.198
same,log2 fold change,[5],inactive: 0.129
same,log2 fold change,[8],inactive: -0.003
same,log2 fold change,[12],inactive: -0.029
same,log2 fold change,[13],inactive: 0.089
same,log2 fold change,[14],inactive: 0.181
same,log2 fold change,[15],inactive: 0.011
HNRNPU isoform 2 (UniProt Q00839),log2 fold change,[18],inactive: -0.073
same,log2 fold change,[19],inactive: 0.032
same,log2 fold change,[20],inactive: 0.004
HEXIM2 (UniProt Q96MH2),log2 fold change,[3],inactive: 0.012
same,log2 fold change,[18],inactive: -0.19
same,log2 fold change,[6],inactive: -0.069
same,log2 fold change,[19],inactive: 0.024
same,log2 fold change,[20],inactive: -0.116
same,log2 fold change,[9],inactive: -0.055
same,log2 fold change,[10],inactive: 0.004
same,log2 fold change,[16],inactive: 0.015
HMX3 (UniProt A6NHT5),log2 fold change,[16],inactive: 0.126
HERPUD1 (UniProt Q15011),log2 fold change,[2],inactive: 0.044
same,log2 fold change,[4],inactive: 0.086
same,log2 fold change,[5],inactive: -0.072
same,log2 fold change,[17],inactive: 0.046
same,log2 fold change,[7],inactive: -0.09
same,log2 fold change,[8],inactive: 0.002
same,log2 fold change,[12],inactive: 0.023
same,log2 fold change,[13],inactive: -0.091
same,log2 fold change,[14],inactive: -0.165
same,log2 fold change,[15],inactive: -0.154
HSF2 (UniProt Q03933),log2 fold change,[4],inactive: -0.119
same,log2 fold change,[18],inactive: 0.078
same,log2 fold change,[5],inactive: 0.049
same,log2 fold change,[17],inactive: -0.044
same,log2 fold change,[8],inactive: 0.105
same,log2 fold change,[19],inactive: -0.043
same,log2 fold change,[20],inactive: 0.11
HNRNPC isoform 2 (UniProt P07910),log2 fold change,[18],inactive: 0.146
same,log2 fold change,[19],inactive: -0.051
same,log2 fold change,[20],inactive: 0.07
HOOK1 (UniProt Q9UJC3),log2 fold change,[4],inactive: -0.582
same,log2 fold change,[18],inactive: 0.117
same,log2 fold change,[5],inactive: 0.225
same,log2 fold change,[8],inactive: 0.334
same,log2 fold change,[19],inactive: -0.057
same,log2 fold change,[20],inactive: -0.089
same,log2 fold change,[16],inactive: -0.131
HLA-E (UniProt P13747),log2 fold change,[17],inactive: 0.108
same,log2 fold change,[16],inactive: -0.044
HP1BP3 isoform 5 (UniProt Q5SSJ5),log2 fold change,[16],inactive: -0.02
HPGD (UniProt P15428),log2 fold change,[4],inactive: 0.132
same,log2 fold change,[18],inactive: 0.129
same,log2 fold change,[5],inactive: 0.34
same,log2 fold change,[17],inactive: 0.201
same,log2 fold change,[8],inactive: -0.137
same,log2 fold change,[19],inactive: 0.343
same,log2 fold change,[20],inactive: -0.204
HSBP1 (UniProt O75506),log2 fold change,[2],inactive: 0.07
same,log2 fold change,[4],inactive: 0.256
same,log2 fold change,[18],inactive: -0.081
same,log2 fold change,[5],inactive: -0.05
same,log2 fold change,[17],inactive: 0.052
same,log2 fold change,[7],inactive: 0.035
same,log2 fold change,[8],inactive: -0.172
same,log2 fold change,[19],inactive: 0.134
same,log2 fold change,[20],inactive: 0.135
same,log2 fold change,[16],inactive: 0.082
HIC2 isoform 2 (UniProt Q96JB3),log2 fold change,[3],inactive: -0.079
same,log2 fold change,[6],inactive: -0.088
same,log2 fold change,[9],inactive: 0.028
same,log2 fold change,[10],inactive: -0.042
HERC3 (UniProt Q15034),log2 fold change,[3],inactive: -0.057
same,log2 fold change,[18],inactive: 0.093
same,log2 fold change,[17],inactive: 0.123
same,log2 fold change,[6],inactive: -0.006
same,log2 fold change,[19],inactive: -0.004
same,log2 fold change,[20],inactive: 0.105
same,log2 fold change,[9],inactive: 0.019
same,log2 fold change,[10],inactive: 0.054
HINFP (UniProt Q9BQA5),log2 fold change,[3],inactive: -0.218
same,log2 fold change,[6],inactive: 0.111
same,log2 fold change,[12],inactive: 0.217
same,log2 fold change,[13],inactive: 0.035
same,log2 fold change,[14],inactive: 0.054
same,log2 fold change,[9],inactive: -0.278
same,log2 fold change,[15],inactive: -0.078
same,log2 fold change,[10],inactive: 0.187
HSD3B7 (UniProt Q9H2F3),log2 fold change,[12],inactive: 0.105
same,log2 fold change,[13],inactive: -0.087
same,log2 fold change,[14],inactive: 0.029
same,log2 fold change,[15],inactive: 0.066

# Reformatted: entries from further up
target | measurement | setting | value
HNRNPUL1 (UniProt M0R247) | log2 fold change | [4] | inactive: 0.014
same | log2 fold change | [5] | inactive: -0.014
same | log2 fold change | [7] | inactive: 0.008
same | log2 fold change | [8] | inactive: 0.034
same | log2 fold change | [16] | inactive: -0.063
HSP90AA2P (UniProt Q14568) | log2 fold change | [3] | inactive: 0.002
same | log2 fold change | [17] | inactive: -0.043
same | log2 fold change | [6] | inactive: -0.049
same | log2 fold change | [9] | inactive: 0.016
same | log2 fold change | [10] | inactive: -0.026
HGFAC (UniProt Q04756) | log2 fold change | [4] | inactive: -0.198
same | log2 fold change | [5] | inactive: 0.129
same | log2 fold change | [8] | inactive: -0.003
same | log2 fold change | [12] | inactive: -0.029
same | log2 fold change | [13] | inactive: 0.089
same | log2 fold change | [14] | inactive: 0.181
same | log2 fold change | [15] | inactive: 0.011
HNRNPU isoform 2 (UniProt Q00839) | log2 fold change | [18] | inactive: -0.073
same | log2 fold change | [19] | inactive: 0.032
same | log2 fold change | [20] | inactive: 0.004
HEXIM2 (UniProt Q96MH2) | log2 fold change | [3] | inactive: 0.012
same | log2 fold change | [18] | inactive: -0.19
same | log2 fold change | [6] | inactive: -0.069
same | log2 fold change | [19] | inactive: 0.024
same | log2 fold change | [20] | inactive: -0.116
same | log2 fold change | [9] | inactive: -0.055
same | log2 fold change | [10] | inactive: 0.004
